According to US20170274075A1:
These are yes or no findings as the source states them, for the method shown. For some assays here: In cells and extracts the contact can be indirect. Some entries that bind do so weakly or less than the wild type. Tags and fused reporters may be left off the sequences shown.

Sequences of proteins named here, by UniProt entry; tags and fusion partners are left off. A change or cut given only in a name is not applied to a line headed by its entry.
UniProt P35968: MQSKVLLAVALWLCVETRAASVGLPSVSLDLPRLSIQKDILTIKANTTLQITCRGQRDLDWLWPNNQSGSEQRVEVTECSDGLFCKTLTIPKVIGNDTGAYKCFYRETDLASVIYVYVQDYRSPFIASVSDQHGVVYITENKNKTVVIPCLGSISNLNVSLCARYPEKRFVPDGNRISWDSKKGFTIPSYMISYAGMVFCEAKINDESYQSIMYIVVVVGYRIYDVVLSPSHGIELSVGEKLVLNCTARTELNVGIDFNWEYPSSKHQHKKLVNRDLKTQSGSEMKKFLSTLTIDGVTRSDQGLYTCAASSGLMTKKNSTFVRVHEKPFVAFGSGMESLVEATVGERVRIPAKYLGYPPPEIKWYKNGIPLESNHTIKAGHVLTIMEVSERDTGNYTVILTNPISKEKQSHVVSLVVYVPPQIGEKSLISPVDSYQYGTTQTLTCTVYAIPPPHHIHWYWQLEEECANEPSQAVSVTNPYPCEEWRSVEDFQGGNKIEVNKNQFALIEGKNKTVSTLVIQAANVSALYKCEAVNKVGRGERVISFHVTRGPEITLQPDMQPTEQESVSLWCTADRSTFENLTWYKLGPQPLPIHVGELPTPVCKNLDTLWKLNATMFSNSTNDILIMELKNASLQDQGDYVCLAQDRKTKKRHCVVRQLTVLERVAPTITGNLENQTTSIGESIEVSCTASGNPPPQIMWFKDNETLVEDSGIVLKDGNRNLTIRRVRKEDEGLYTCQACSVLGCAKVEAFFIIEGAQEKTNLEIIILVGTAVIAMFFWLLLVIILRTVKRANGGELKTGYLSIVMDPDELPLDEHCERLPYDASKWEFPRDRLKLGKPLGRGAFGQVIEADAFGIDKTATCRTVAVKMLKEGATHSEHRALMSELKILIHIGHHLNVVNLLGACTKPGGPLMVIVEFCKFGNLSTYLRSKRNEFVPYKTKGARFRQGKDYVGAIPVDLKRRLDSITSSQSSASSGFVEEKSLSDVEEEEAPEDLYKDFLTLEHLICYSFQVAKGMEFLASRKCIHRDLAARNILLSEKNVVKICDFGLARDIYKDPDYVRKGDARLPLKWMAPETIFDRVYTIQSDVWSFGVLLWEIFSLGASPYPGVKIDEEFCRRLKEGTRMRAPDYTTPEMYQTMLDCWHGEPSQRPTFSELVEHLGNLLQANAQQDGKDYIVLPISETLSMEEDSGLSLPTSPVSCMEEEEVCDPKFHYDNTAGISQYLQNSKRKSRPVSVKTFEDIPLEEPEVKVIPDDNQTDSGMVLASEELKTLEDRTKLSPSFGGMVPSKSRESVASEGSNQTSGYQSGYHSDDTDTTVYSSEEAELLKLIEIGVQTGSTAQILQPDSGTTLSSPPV

Assays:
[1] = target: vascular endothelial growth factor receptor-2 (VEGFR-2) (human) (UniProt P35968); experiment: summary of Example 1 (co-immunoprecipitation)
[2] = target: vascular endothelial growth factor receptor-2 (VEGFR-2) (human) (UniProt P35968); experiment: co-immunoprecipitation (FIG. 6A), retold in the detailed description
[3] = target: vascular endothelial growth factor receptor-2 (VEGFR-2) (human) (UniProt P35968); experiment: co-immunoprecipitation from HEK-293 lysates (IP anti-VEGFR-2, blot anti-Myc)
[4] = target: vascular endothelial growth factor receptor-2 (VEGFR-2) (human) (UniProt P35968); experiment: co-immunoprecipitation from HEK-293 lysates (IP anti-VEGFR-2, blot anti-Myc; FIG. 6A)
[5] = target: vascular endothelial growth factor receptor-2 (VEGFR-2) (human) (UniProt P35968); experiment: co-immunoprecipitation from lysates of HEK-293 cells co-expressing VEGFR-2 (IP anti-VEGFR-2, immunoblot anti-c-Myc)
[6] = target: vascular endothelial growth factor receptor-2 (VEGFR-2) (human) (UniProt P35968); experiment: co-immunoprecipitation after cell surface biotinylation or Brefeldin A treatment
[7] = target: vascular endothelial growth factor receptor-2 (VEGFR-2) (human) (UniProt P35968); experiment: conclusion drawn from the co-immunoprecipitation and cycloheximide-chase experiments
[8] = target: vascular endothelial growth factor receptor-2 (VEGFR-2) (human) (UniProt P35968); experiment: cell surface biotinylation, then IP with anti-VEGFR-2 and blot with anti-c-Myc (FIG. 7A)
[9] = target: vascular endothelial growth factor receptor-2 (VEGFR-2) (human) (UniProt P35968); experiment: co-immunoprecipitation (IP anti-c-Myc, blot anti-VEGFR-2) from HEK-293 cells treated with Brefeldin A (FIG. 7B)
[10] = target: vascular endothelial growth factor receptor-2 (VEGFR-2) (human) (UniProt P35968); experiment: co-immunoprecipitation from HEK-293 lysates (IP anti-VEGFR-2, blot anti-Myc; FIG. 6A); wild type is the weaker reference
[11] = target: vascular endothelial growth factor receptor-2 (VEGFR-2) (human) (UniProt P35968); experiment: cell surface biotinylation, non-biotinylated and biotinylated fractions immunoprecipitated with anti-VEGFR-2 and blotted with anti-c-Myc
[12] = target: vascular endothelial growth factor receptor-2 (VEGFR-2) (human) (UniProt P35968); experiment: co-immunoprecipitation from HEK-293 cells co-transfected with Myc-tagged PDCL3 and VEGFR-2, treated with Brefeldin A or vehicle (IP anti-c-Myc, immunoblot anti-VEGFR-2)

Measured: binding

B1: HA-tagged N-terminus methionine mutant PDCL3 (acetylation resistant) (protein, not shown: small tags and cut ends)
chain: QDPNADTEWNDILRKKGILPPKESLKELEEEAEEEQRILQQSVVKTYEDMTLEELEDHEDEFNEEDERAIEMYRRRRLAEWKATKLKNKFGEVLEISGKDYVQEVTKAGEGLWVILHLYKQGIPLCALINQHLSGLARKFPDVKFIKAISTTCIPNYPDRNLPTIFVYLEGDIKAQFIGPLVFGGMNLTRDELEWKLSESGAIMTDLEENPKKPIEDVLLSSVRRSVLMKRDSDSEGD
binds: [1] | [2] | [3] | [4] | [5]

B2: C-terminus Myc-tagged PDCL3 (human phosducin-like protein 3, wild-type) (protein, not shown: small tags and cut ends)
chain: MQDPNADTEWNDILRKKGILPPKESLKELEEEAEEEQRILQQSVVKTYEDMTLEELEDHEDEFNEEDERAIEMYRRRRLAEWKATKLKNKFGEVLEISGKDYVQEVTKAGEGLWVILHLYKQGIPLCALINQHLSGLARKFPDVKFIKAISTTCIPNYPDRNLPTIFVYLEGDIKAQFIGPLVFGGMNLTRDELEWKLSESGAIMTDLEENPKKPIEDVLLSSVRRSVLMKRDSDSEGD
modifications: N-terminal methionine acetylated (found by LC-MS/MS)
not listed: [2] | [3] | [4]
binds: all other assays above
